Record: PubChem BioAssay AID504808 (Drosophila RNAi Screening Center, 2011)
In all, the deposit lists about 21,000 reagents; shown is a random part of those that have a named target and a result. In the full data, 18 (0.084%) are marked active. 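Raw counts without plate normalisation, one of two replicates; the ratio scores behind the calls were not deposited.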 Reagents against one gene are numbered here. Names joined by + are all predicted targets of the reagent. No sequences are given here. The record does not give: the amount of reagent, the time to read-out.

- Purpose: 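Genes whose loss lifts activity of an E2F-responsive reporter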 (primary screen)
- Cells: Drosophila S2 cells
- Reagents: long dsRNA against Drosophila genes
- Measured: 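Dual luciferase plate measurements; E2F-specific signal taken as firefly over Renilla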
- Direction: E2F firefly: higher = more E2F reporter activity; Renilla normaliser: higher = more normaliser reporter signal
- Rule for the call: 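Called active if the normalised E2F reporter went up by over 50%; the cutoff is arbitrary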

no.	gene	reagent	E2F firefly, rep 1	Renilla normaliser, rep 1	call
1	PGRP-SA (Peptidoglycan recognition protein SA)	1	1.39e5	7069	inactive
2	da	1	1.56e5	4337	inactive
3	Exo84 (Exocyst 84)	1	1.01e5	7641	inactive
4	CG12963	1	98351	4123	inactive
5	Sfp38D (Seminal fluid protein 38D)	1	1.19e5	5193	inactive
6	CG31109	1	1.16e5	5842	inactive
7	ksr (kinase suppressor of ras)	1	1.53e5	5799	inactive
8	CG34168	1	1.03e5	4170	inactive
9	CG2113	1	96430	4243	inactive
10	Prp16 (pre-mRNA processing factor 16)	1	7687	760	inactive
11	Prp16 (pre-mRNA processing factor 16)	2	1.07e5	6254	inactive
12	PGRP-SB2 (Peptidoglycan recognition protein SB2)	1	1.61e5	7801	inactive
13	fax (failed axon connections)	1	66571	3944	inactive
14	msl-2 (male-specific lethal 2)	1	85326	3666	inactive
15	mira (miranda)	1	65608	3158	inactive
16	CG5246	1	1.05e5	6053	inactive
17	slim (scruin like at the midline)	1	81729	4091	inactive
18	Cyt-b5-r (Cytochrome b5-related)	1	89184	3905	inactive
19	sprt (sprite)	1	2912	202	inactive
20	Fer3 (48 related 3)	1	81645	4347	inactive
21	SkpA (SKP1-related A)	1	1524	968	inactive
22	Vm26Ac (Vitelline membrane 26Aac)	1	1.44e5	5202	inactive
23	meso18E	1	1.23e5	6646	inactive
24	Tgi (Tondu-domain-containing Growth Inhibitor)	1	1.26e5	7311	inactive
25	Tgi (Tondu-domain-containing Growth Inhibitor)	2	1.36e5	6865	inactive
26	CG9981	1	1.56e5	7756	inactive
27	Ald1 (Aldolase 1)	1	1742	952	inactive
28	Arf6 (ADP ribosylation factor 6)	1	1.03e5	4345	inactive
29	CG1075 (retired record)	1	1.33e5	6824	inactive
30	KLHL18 (Kelch like family member 18)	1	62520	3376	inactive
31	PSMG1 (Proteasome assembly chaperone 1)	1	70276	4080	inactive
32	Ptip (PAX transcription activation domain interacting protein)	1	2.03e5	11214	inactive
33	Ptip (PAX transcription activation domain interacting protein)	2	1.70e5	6118	inactive
34	Gclc (Glutamate-cysteine ligase catalytic subunit)	1	1.12e5	5041	inactive
35	CG5087	1	1.00e5	4142	inactive
36	CG11417	1	1810	688	inactive
37	sinu (sinuous)	1	59680	3281	inactive
38	nmdyn-D7	1	1.42e5	6567	inactive
39	Ak1 (Adenylate kinase 1)	1	1.38e5	7430	inactive
40	CG7512	1	1.20e5	7109	inactive
41	CG3407	1	69865	4065	inactive
42	Ge-1	1	72227	3074	inactive
43	CG12279	1	1.17e5	5692	inactive
44	Mur82C (Mucin related 82C)	1	90800	3997	inactive
45	Mur82C (Mucin related 82C)	2	1.67e5	7487	inactive
46	CG33655	1	1.10e5	3904	inactive
47	CG6565	1	79482	3263	inactive
48	Cam (Calmodulin)	1	1.02e5	4233	inactive
49	Cam (Calmodulin)	2	1.16e5	4858	inactive
50	CG2641	1	1.29e5	6135	inactive
51	CG14292	1	1.35e5	6810	inactive
52	CG34282	1	1.29e5	5864	inactive
53	CG14013	1	1.44e5	5412	inactive
54	Lcp65Ab2 + Lcp65Ab1	1	94968	3825	inactive
55	Lcp65Ab2 + Lcp65Ab1	2	1.01e5	3633	inactive
56	Orc5 (Origin recognition complex subunit 5)	1	99902	3811	inactive
57	CG33460	1	1.26e5	5174	inactive
58	CG14739	1	1.48e5	6295	inactive
59	MED24 (Mediator complex subunit 24)	1	94928	4984	inactive
60	CG14756	1	1.32e5	4381	inactive
61	CG5819	1	1.03e5	4404	inactive
62	CG17050 (retired record)	1	96808	3800	inactive
63	CG32832	1	1.44e5	6081	inactive
64	CG13707	1	1.00e5	3525	inactive
65	CG32374	1	1.08e5	3929	inactive
66	alphaCOP (Coat Protein (coatomer) alpha)	1	57176	4158	inactive
67	Tep5Psi (Thioester-containing protein 5 pseudogene)	1	1.01e5	4164	inactive
68	Tep5Psi (Thioester-containing protein 5 pseudogene)	2	92643	3777	inactive
69	CG7646	1	1.30e5	5842	inactive
70	Argk1 (Arginine kinase 1)	1	1.35e5	5214	inactive
71	Argk1 (Arginine kinase 1)	2	76310	2903	inactive
72	Argk1 (Arginine kinase 1)	3	74690	3633	inactive
73	Zmynd8 (Zinc finger MYND-type containing 8)	1	1939	996	inactive
74	CG15605	1	1.65e5	5386	inactive
75	Lsp2 (Larval serum protein 2)	1	1.21e5	7650	inactive
76	Lsp2 (Larval serum protein 2)	2	1.24e5	7283	inactive
77	CG14866	1	1.20e5	5899	inactive
78	CG7423	1	1.32e5	6272	inactive
79	CG30413	1	1.23e5	4960	inactive
80	Or7a (Odorant receptor 7a)	1	1.11e5	5035	inactive
81	Nct (Nicastrin)	1	80131	5164	inactive
82	jet (jetlag)	1	1.01e5	4210	inactive
83	Or63a (Odorant receptor 63a)	1	1.06e5	4102	inactive
84	form3 (formin 3)	1	90440	3766	inactive
85	form3 (formin 3)	2	64475	3304	inactive
86	form3 (formin 3)	3	95285	4059	inactive

Laid out differently: 6 of the entries above.
| gene | reagent | E2F firefly, rep 1 | Renilla normaliser, rep 1 | call |
| --- | --- | --- | --- | --- |
| fax (failed axon connections) | 1 | 66571 | 3944 | inactive |
| msl-2 (male-specific lethal 2) | 1 | 85326 | 3666 | inactive |
| mira (miranda) | 1 | 65608 | 3158 | inactive |
| CG5246 | 1 | 1.05e5 | 6053 | inactive |
| slim (scruin like at the midline) | 1 | 81729 | 4091 | inactive |
| Cyt-b5-r (Cytochrome b5-related) | 1 | 89184 | 3905 | inactive |
